Measured values: patent US7947734B2, “Substituted para-trifluoromethyl phenylate compounds and its preparation and use thereof” (Sinochem Corporation, priority 2005, dated 2011)
Some of these results come from one statement about several compounds together.

How the values were obtained:
Assay type in all cases: in vivo
Details in all cases: 200 mg/L
[1] = system: wheat root rot (Helminthosporium sativum); assay: Fungicidal activity against wheat root rot on potted plants
[2] = system: cucumber anthracnose (Colletotrichum lagenarium); assay: Fungicidal activity against cucumber anthracnose on potted plants
[3] = system: wheat glume blotch root rot (Septria nodrum); assay: Fungicidal activity against wheat glume blotch root rot on potted plants
[4] = system: wheat leaf rust (Puccinia tritici); assay: Fungicidal activity against wheat leaf rust on potted plants
[5] = system: rice blast (Pyricularia oryzae)

COC=C(C(=O)OC)c1ccccc1COc1ccc(C(F)(F)F)cc1Cl [compound 1]
more than 95%: control against wheat root rot [1] | control against cucumber anthracnose [2] | control against wheat glume blotch root rot [3] | control against wheat leaf rust [4] | control against rice blast [5]

CNC(=O)C(=NOC)c1ccccc1COc1ccc(C(F)(F)F)cc1Cl [compound 7]
more than 95%: control against wheat root rot [1] | control against cucumber anthracnose [2] | control against wheat glume blotch root rot [3] | control against wheat leaf rust [4] | control against rice blast [5]

CON=C(C(=O)OC)c1ccccc1COc1ccc(C(F)(F)F)cc1Cl [compound 4]
more than 95%: control against wheat root rot [1] | control against cucumber anthracnose [2] | control against wheat glume blotch root rot [3] | control against wheat leaf rust [4] | control against rice blast [5]
